Source: US20260034146A1, “NEUROACTIVE 19-ALKOXY-17-S[…], PRODRUGS THEREOF, AND METHODS OF TREATMENT USING SAME” (priority 2012, published 2026)

What was measured:
Tadpole = Tadpole loss of righting reflex (LRR) and loss of swimming reflex (LSR); format: in vivo; details: Hill coefficient, ± SEM; for Tadpole LRR nHill: loss of righting reflex; for Tadpole LSR nHill: loss of swimming reflex
Procedure: Table 3 discloses the anesthetic effects of the compounds of the present disclosure. In particular, the anesthetic effect of the compounds of the present disclosure on Loss of Righting Reflex (LRR) and Loss of Swimming Reflex (LSR).
Methods used are known in the art (see Jiang, X., et al.). Error limits are calculated as standard error of the mean (N=10 or more animals at each of five or more different concentrations).

[1] = test system: picrotoxin binding site on GABAA receptors; test: [35S]-TBPS displacement (inhibition of [35S]-TBPS binding); details: Hill coefficient of the TBPS displacement curve; ± SEM
Procedure: The IC50 values for non-competitive displacers of [^35S]-TBPS from the picrotoxin binding site on GABAA receptors are reported in Table 1.
^aResults presented are from duplicate experiments performed in triplicate. Error limits are calculated as standard error of the mean. Methods used are known in the art (see Jiang, X., et al., Neurosteroid analogues. 9. Conformationally constrained pregnanes: structure-activity studies of 13,24-cyclo-18,21-dinorcholane analogues of the GABA modulatory and anesthetic steroids (3α,5α)- and […]. J. Med. Chem., 46: 5334-48 (2003)—the contents of which are hereby incorporated by reference in their entirety).

Row | Compound | Tadpole LRR nHill (Tadpole) | Tadpole LSR nHill (Tadpole) | nHill, inhibition of [35S]-TBPS binding [1]
1 | COC[C@]12CC[C@@H](O)C[C@@H]1CC[C@H]1[C@@H]3CC[C@H](C(=O)CO)[C@@]3(C)CC[C@@H]12 [20, MQ-98, (3α,5α)-3,21-Dihydroxy-19-methoxypregnan-20-one] | −2.54 ± 1.23 | −33.3 ± 0.1 | 0.88 ± 0.12
2 | COC[C@]12CCC(=O)C[C@@H]1CC[C@H]1[C@@H]3CC[C@H](OC)[C@@]3(C)CC[C@@H]12 [7, MQ-88, (5α,17β)-17,19-Dimethoxyandrostan-3-one] | −2.41 ± 0.56 | −33.3 ± 0.10 | 1.27 ± 0.15
3 | COC[C@]12CC[C@@H](O)C[C@@H]1CC[C@@H]1[C@@H]2CC[C@]2(C)C(C#N)=CC[C@@H]12 [15, MQ-91, (3α,5α)-3-Hydroxy-19-methoxyandrost-16-ene-17-carbonitrile] | −7.11 ± 28.0 | −21.4 ± 0.7 | 1.01 ± 0.10
4 | COC[C@]12CC[C@@H](O)C[C@@H]1CC[C@H]1[C@@H]3CC[C@H](C#N)[C@@]3(C)CC[C@@H]12 [16, MQ-92, (3α,5α,17β)-3-Hydroxy-19-methoxyandrostane-17-carbonitrile] | −3.37 ± 1.34 | −21.7 ± 0.6 | 1.24 ± 0.14
5 | COC[C@]12CC[C@@H](O)CC1=CC[C@@H]1[C@@H]2CC[C@]2(C)[C@@H](OC)CC[C@@H]12 [25, MQ-101, (3α,17β)-17,19-Dimethoxyandrost-5-en-3-ol] | −2.80 ± 1.13 | −21.1 ± 0 | 0.94 ± 0.09
6 | COC[C@]12CC[C@H](O)CC1=CC[C@@H]1[C@@H]2CC[C@]2(C)[C@@H](OC)CC[C@@H]12 [26, MQ-100, (3β,17β)-17,19-Dimethoxyandrost-5-en-3-ol] |  |  | 1.19 ± 0.24
7 | COC[C@]12CC[C@H](O)C[C@@H]1CC[C@H]1[C@@H]3CC[C@H](OC)[C@@]3(C)CC[C@@H]12 [31, MQ-96, (3β,5α,17β)-17,19-Dimethoxyandrostan-3-ol] | −1.66 ± 0.51 | −3.27 ± 2.5 | 1.27 ± 0.33
8 | COC[C@]12CC[C@@H](O)C[C@@H]1CC[C@H]1[C@@H]3CC[C@H]([N+](=O)[O-])[C@@]3(C)CC[C@@H]12 [29, MQ-97, (3α,5α,17β)-19-methoxy-17-nitroandrostan-3-ol] | −1.84 ± 0.11 | −33.3 ± 0.1 | 0.88 ± 0.08
9 | COC[C@]12CC[C@@H](O)C[C@@H]1CC[C@H]1[C@@H]3CC[C@H](C(C)=O)[C@@]3(C)CC[C@@H]12 [17, MQ-93, (3α,5α)-3-Hydroxy-19-methoxypregnan-20-one] | −2.74 ± 1.12 | −36.3 ± 0.1 | 1.17 ± 0.09
10 | COC[C@]12CC[C@@H](O)C[C@@H]1CC[C@@H]1[C@@H]2CC[C@@]2(C)[C@H]1CC[C@@]21CO1 [12, MQ-90, (3α,5α,17β)-19-Methoxyspiro[androstane-17,2′-oxiran]-3-ol] | −2.53 ± 0.11 | −17.9 ± 71 | 1.06 ± 0.04
11 | COC[C@]12CCC(=O)C=C1CC[C@@H]1[C@@H]2CC[C@]2(C)[C@@H](OC)CC[C@@H]12 [24, MQ-99, (17β)-17,19-Dimethoxyandrost-4-en-3-one] |  |  | 1.24 ± 0.47
12 | COC[C@]12CC[C@@H](O)C[C@@H]1CC[C@H]1[C@@H]3CC[C@H](OC)[C@@]3(C)CC[C@@H]12 [8, MQ-89, (5α,17β)-17,19-Dimethoxyandrostan-3-ol] | −2.32 ± 0.75 | −16.1 ± 0.64 | 1.05 ± 0.03
